Measured values reported in PubChem BioAssay AID226 (DTP/NCI, 2004).
The list is a part of this screen's results and no random one: it is rich in T/C values a quarter to a half above the control, in often repeated tests (any T/C) and in doses without a T/C. Further doses and runs are listed elsewhere. T/C gives the treated animals as a percentage of the vehicle group. Some doses have a count of surviving animals in place of a T/C: the source holds a T/C of zero for them, seemingly a mark for toxic or unscored doses. Some doses without a T/C left all or most animals alive at the check, yet need not have been tolerated: survival well below the control is almost never listed, so the zero probably covers shortened survival too. Survivors were counted at the toxicity check, usually on the fifth day, unless a day is given; later deaths do not show. Schedule codes are those of the source, taken here to give the interval after Q, in days (D) or hours (H), and the number of doses after X. Some doses were run more than once; the values are given in rising order. For survival time, the PubChem record calls one and a half times the control and up active, and a quarter to a half above the control has no call in these data; cut-offs in other NCI protocols can differ. Some T/C values carry the count of animals alive at the toxicity check (mostly the fifth day); without a count, all were alive then. Brackets with × stand for listed records that agree.

Test system: B6C3F1 mice, intracerebral ependymoblastoma, median survival T/C
Assay: NCI In Vivo Anticancer Drug Screen. Data for tumor model Ependymoblastoma (intracerebral) in B6C3F1 mice
Conditions: T/C endpoint: median survival time, higher T/C = longer survival
Procedure: The antitumor activity of compounds was measured in mice bearing transplantable tumors. Survival or tumor size were measured and the results are expressed as the measurement made in the treated group (T) divided by the measurement made in the vehicle treated control group (C). The tumor model used in this assay is Ependymoblastoma (intracerebral) in B6C3F1 mice

[1] = dose: 16.0 mg/kg/injection, schedule: Q01DX005 (ip), vehicle: Klucel (hydroxypropylcellulose) (HPC)

## CC1CCC(NC(=O)N(CCCl)N=O)CC1 (configuration not stated)
dose: 0.5 mg/kg/injection, schedule: Q01DX005 (ip), vehicle: Klucel (hydroxypropylcellulose) (HPC)
  T/C: 96, 100 [9 of 10 alive], 107, 108 [9 of 10 alive], 109, 111, 114 % of control
dose: 1.0 mg/kg/injection, schedule: Q01DX005 (ip), vehicle: Klucel (hydroxypropylcellulose) (HPC)
  T/C: 93, 102, 108, 110, 111, 113, 115 % of control
dose: 2.0 mg/kg/injection, schedule: Q01DX005 (ip), vehicle: Klucel (hydroxypropylcellulose) (HPC)
  T/C: 100, 110, 121 (2×), 123, 127, 133 % of control
dose: 4.0 mg/kg/injection, schedule: Q01DX005 (ip), vehicle: Klucel (hydroxypropylcellulose) (HPC)
  T/C: 116 [9 of 10 alive], 117, 120, 129, 132, 137, 152 % of control
dose: 4.0 mg/kg/injection, schedule: Q01DX009 (ip), vehicle: Klucel (hydroxypropylcellulose) (HPC)
  T/C: 144 % of control
dose: 6.0 mg/kg/injection, schedule: Q01DX005 (ip), vehicle: saline
  T/C: 129 % of control
dose: 8.0 mg/kg/injection, schedule: Q01DX005 (ip), vehicle: Klucel (hydroxypropylcellulose) (HPC)
  T/C: 119, 136, 138, 151, 155 [9 of 10 alive], 157, 211 % of control
dose: 8.0 mg/kg/injection, schedule: Q01DX005 (ip), vehicle: saline
  T/C: 127 % of control
dose: 8.0 mg/kg/injection, schedule: Q01DX009 (ip), vehicle: Klucel (hydroxypropylcellulose) (HPC)
  T/C: 133 % of control
dose: 12.5 mg/kg/injection, schedule: Q01DX001 (ip), vehicle: saline + alcohol
  T/C: 138 % of control
[1]
  T/C: 92, 109 [9 of 10 alive], 127, 128 [9 of 10 alive], 164, 193 % of control
  survivor count: 10 of 10
dose: 16.0 mg/kg/injection, schedule: Q01DX009 (ip), vehicle: Klucel (hydroxypropylcellulose) (HPC)
  survivor count: 8 of 10
dose: 32.0 mg/kg/injection, schedule: Q01DX001 (ip), vehicle: other
  T/C: 144 % of control
dose: 100.0 mg/kg/injection, schedule: Q01DX001 (ip), vehicle: saline + alcohol
  survivor count: 5 of 10
dose: 200.0 mg/kg/injection, schedule: Q01DX001 (ip), vehicle: saline + alcohol
  survivor count: 1 of 10
dose: 256.0 mg/kg/injection, schedule: Q01DX001 (ip), vehicle: other
  survivor count: 4 of 10

## COc1cccc2c1C(=O)c1c(O)c3c(c(O)c1C2=O)C[C@@](O)(C(C)=O)C[C@@H]3OC1CC(N)C(O)C(C)O1 (some centres not stated)
dose: 2.0 mg/kg/injection, schedule: Q01DX005 (ip), vehicle: water
  survivor count: 10 of 10
dose: 4.0 mg/kg/injection, schedule: Q01DX005 (ip), vehicle: water
  survivor count: 9 of 10 and 10 of 10
dose: 8.0 mg/kg/injection, schedule: Q01DX005 (ip), vehicle: water
  survivor count: 7 of 10 and 8 of 10
dose: 16.0 mg/kg/injection, schedule: Q01DX005 (ip), vehicle: water
  survivor count: 4 of 10
dose: 32.0 mg/kg/injection, schedule: Q01DX005 (ip), vehicle: water
  survivor count: 0 of 10
